Experimental data reported in PMC5358341.
Results are given in words; binding and its absence hold for the method and conditions named. In cells and extracts the contact can be indirect. Some entries that bind do so weakly or less than the wild type. For part of these data: Tags and fused reporters may be left off the sequences shown.

Amino acid sequences for entries named in this document (tags omitted).
UniProt Q13185: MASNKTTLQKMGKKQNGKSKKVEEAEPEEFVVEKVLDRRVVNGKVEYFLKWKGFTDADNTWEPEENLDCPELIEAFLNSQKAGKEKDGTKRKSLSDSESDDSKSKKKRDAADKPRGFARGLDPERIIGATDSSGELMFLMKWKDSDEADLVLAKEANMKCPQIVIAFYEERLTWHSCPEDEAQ

T1: GFP–NIPBL^N (smallest N-terminal fragment of NIPBL isoform A fused to GFP) (human) (UniProt Q6KC79)
T1 sequence: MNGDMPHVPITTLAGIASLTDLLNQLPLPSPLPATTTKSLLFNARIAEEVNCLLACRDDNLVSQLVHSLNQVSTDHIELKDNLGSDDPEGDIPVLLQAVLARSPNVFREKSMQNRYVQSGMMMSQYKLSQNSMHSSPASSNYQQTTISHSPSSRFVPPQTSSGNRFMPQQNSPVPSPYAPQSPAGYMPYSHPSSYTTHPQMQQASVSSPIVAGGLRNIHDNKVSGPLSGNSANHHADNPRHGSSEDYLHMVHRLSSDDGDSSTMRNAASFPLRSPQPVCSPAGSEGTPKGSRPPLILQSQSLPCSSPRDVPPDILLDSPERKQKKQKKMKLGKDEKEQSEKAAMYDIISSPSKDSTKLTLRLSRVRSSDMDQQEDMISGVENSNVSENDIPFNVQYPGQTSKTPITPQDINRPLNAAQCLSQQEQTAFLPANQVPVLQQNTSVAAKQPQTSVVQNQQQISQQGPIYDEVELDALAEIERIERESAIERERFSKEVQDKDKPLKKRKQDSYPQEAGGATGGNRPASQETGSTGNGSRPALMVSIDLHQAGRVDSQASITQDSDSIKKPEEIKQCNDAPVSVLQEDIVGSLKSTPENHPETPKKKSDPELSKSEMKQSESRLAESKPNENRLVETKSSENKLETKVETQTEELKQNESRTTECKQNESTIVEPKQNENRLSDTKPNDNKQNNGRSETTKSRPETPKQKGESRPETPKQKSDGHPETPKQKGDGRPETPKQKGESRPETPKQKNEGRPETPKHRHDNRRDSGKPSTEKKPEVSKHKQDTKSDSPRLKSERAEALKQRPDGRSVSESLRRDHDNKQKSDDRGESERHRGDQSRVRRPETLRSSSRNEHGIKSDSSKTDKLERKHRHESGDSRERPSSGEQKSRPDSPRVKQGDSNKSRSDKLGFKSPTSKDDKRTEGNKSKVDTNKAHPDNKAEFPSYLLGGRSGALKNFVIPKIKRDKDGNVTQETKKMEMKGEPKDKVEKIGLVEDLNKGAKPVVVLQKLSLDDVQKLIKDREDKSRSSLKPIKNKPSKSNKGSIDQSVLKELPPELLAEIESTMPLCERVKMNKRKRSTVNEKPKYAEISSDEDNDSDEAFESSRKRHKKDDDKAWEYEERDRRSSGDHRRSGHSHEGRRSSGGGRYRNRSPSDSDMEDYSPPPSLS


Tests used:
[1] = molecular target: T1, GFP–NIPBL^N (smallest N-terminal fragment of NIPBL isoform A fused to GFP) (human); test: co-IP; nuclear extracts (50 mM Hepes, 3 mM MgCl2, 300 mM NaCl, benzonase) incubated with Protein A beads coupled to anti-GFP antibody overnight at 4°C; GFP–NIPBL^N precipitated, HP1γ detected by western blotting
[2] = molecular target: GFP–NIPBL^A (full-length NIPBL isoform A fused to GFP) (human) (UniProt Q6KC79); test: co-IP; whole-cell extracts (0.5% NP-40, 150 mM NaCl, 50 mM Tris-HCl pH 8, DNAseI) mixed with anti-GFP–Sepharose beads overnight at 4°C; GFP–NIPBL precipitated, native MAU2 detected by western blotting
[3] = molecular target: GFP–NIPBL^G15R (full-length NIPBL isoform A with the G15R mutation, fused to GFP) (human) (UniProt Q6KC79); test: as above

binding [1] | binding [2] | binding [3] | Molecule
binds | – | – | HP1γ (heterochromatin protein 1 gamma) (from UniProt Q13185 1-183)
– | binds | no binding | native MAU2 (protein, UniProt Q9Y6X3 1-613) MAAQAAAAAQAAAAQAAQAEAADSWYLALLGFAEHFRTSSPPKIRLCVHCLQAVFPFKPPQRIEARTHLQLGSVLYHHTKNSEQARSHLEKAWLISQQIPQFEDVKFEAASLLSELYCQENSVDAAKPLLRKAIQISQQTPYWHCRLLFQLAQLHTLEKDLVSACDLLGVGAEYARVVGSEYTRALFLLSKGMLLLMERKLQEVHPLLTLCGQIVENWQGNPIQKESLRVFFLVLQVTHYLDAGQVKSVKPCLKQLQQCIQTISTLHDDEILPSNPADLFHWLPKEHMCVLVYLVTVMHSMQAGYLEKAQKYTDKALMQLEKLKMLDCSPILSSFQVILLEHIIMCRLVTGHKATALQEISQVCQLCQQSPRLFSNHAAQLHTLLGLYCVSVNCMDNAEAQFTTALRLTNHQELWAFIVTNLASVYIREGNRHQEVLYSLLERINPDHSFPVSSHCLRAAAFYVRGLFSFFQGRYNEAKRFLRETLKMSNAEDLNRLTACSLVLLGHIFYVLGNHRESNNMVVPAMQLASKIPDMSVQLWSSALLRDLNKACGNAMDAHEAAQMHQNFSQQLLQDHIEACSLPEHNLITWTDGPPPVQFQAQNGPNTSLASLL
